Among the data in PMC5640240 are binding values, retold here.

Amino acid sequences for entries named in this document (tags omitted).
UniProt P61244: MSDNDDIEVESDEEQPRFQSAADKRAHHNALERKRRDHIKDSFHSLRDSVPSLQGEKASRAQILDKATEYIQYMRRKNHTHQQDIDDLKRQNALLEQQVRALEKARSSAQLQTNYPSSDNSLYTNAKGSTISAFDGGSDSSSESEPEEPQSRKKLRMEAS
UniProt P67775: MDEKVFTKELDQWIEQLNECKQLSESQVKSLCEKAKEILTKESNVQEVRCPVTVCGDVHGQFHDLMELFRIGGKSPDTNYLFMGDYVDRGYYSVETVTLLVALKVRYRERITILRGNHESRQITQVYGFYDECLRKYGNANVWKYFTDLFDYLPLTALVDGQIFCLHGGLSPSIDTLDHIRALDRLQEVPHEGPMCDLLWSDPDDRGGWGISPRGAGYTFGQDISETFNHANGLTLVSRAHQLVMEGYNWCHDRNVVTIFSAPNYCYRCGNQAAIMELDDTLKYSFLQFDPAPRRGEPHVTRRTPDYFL

Assay [1] deals with EP400 (human (endogenous in MKL-1)) (UniProt Q96L91). The assay is described as follows: co-IP; MKL-1 lysates (EBC buffer), endogenous proteins; antibodies on protein G Dynabeads overnight at 4°C, five washes with 300 mM NaCl buffer, immunoblot; includes cells with shScr, shPanT, shST, Dox-inducible shMYCL, mirMYCL or shEP400. On the technique in general: In western blotting, separated proteins are transferred to a membrane and probed.

Assay [2] concerns the target T1, MYCL with C-terminal 3xHA tag, wild type (human) (UniProt P12524).
T1 sequence: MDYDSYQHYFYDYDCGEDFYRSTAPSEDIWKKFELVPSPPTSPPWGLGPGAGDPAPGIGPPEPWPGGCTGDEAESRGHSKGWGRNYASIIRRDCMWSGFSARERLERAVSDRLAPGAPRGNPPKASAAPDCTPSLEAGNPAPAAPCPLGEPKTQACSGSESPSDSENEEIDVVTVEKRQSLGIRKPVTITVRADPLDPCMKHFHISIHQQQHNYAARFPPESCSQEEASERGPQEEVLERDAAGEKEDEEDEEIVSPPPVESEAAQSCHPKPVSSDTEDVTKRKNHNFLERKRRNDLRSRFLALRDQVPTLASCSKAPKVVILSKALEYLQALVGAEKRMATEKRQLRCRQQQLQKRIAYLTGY
Put plainly: co-IP; lysates of HCT116 cells stably expressing C-terminal 3xHA-tagged MYCL constructs without ST; immunoprecipitated with HA antibody and blotted.

The target in assay [3] is EPC1 (human (endogenous in MKL-1)) (UniProt Q9H2F5). The assay is described as follows: co-IP; MKL-1 lysates (EBC buffer), endogenous proteins; antibodies on protein G Dynabeads overnight at 4°C, five washes with 300 mM NaCl buffer, immunoblot; includes cells with shScr, shPanT, shST, Dox-inducible shMYCL, mirMYCL or shEP400.
Assay [4] deals with MAX (human (endogenous in MKL-1 and the other cell lines)) (UniProt P61244). The description is as above.
The target of assay [5] is VPS72 (human (endogenous in MKL-1)) (UniProt Q15906). The assay is described as above.
Assay [6] addresses ACTL6A (human (endogenous in MKL-1)) (UniProt O96019). Described as above.

No constants are given. Whether binding was seen depends on the method and setting. Binding seen in cells or lysates may run through a third protein. Some results given as binding are weak or reduced against the parent protein; the word gives no strength. For some of these results: Tags and fused reporters may be left off the sequences shown.

With DMAP1 (from UniProt Q9NPF5 1-467), the binding entry in assay [1] is listed as “binds”.
With MAX (from UniProt P61244 1-160), the binding result in assay [2] is listed as “binds”.
With PPP2CA (from UniProt P67775 1-309), the binding entry in assay [3], in assay [4], in assay [1], in assay [5] and in assay [6] was “binds” throughout.
With TRRAP (from UniProt Q9Y4A5 1-3859), the binding result in assay [1] is “binds”.
Same read-out and setting: for YEATS4 (from UniProt O95619 1-227) the value was “binds”.

B1: MYCL (protein, UniProt P12524 1-364)
chain: T1 sequence
Turning to B1, the binding entry in assay [4] is “binds”.
